# The other results are listed elsewhere or left out. Most entries show no effect beyond the scatter of the controls.
# By UniProt entry, the sequences of proteins in these tests, tags left out. Where a name states a change or a piece, a line headed by the entry shows the natural chain unless it says otherwise.
# UniProt Q8TDR0: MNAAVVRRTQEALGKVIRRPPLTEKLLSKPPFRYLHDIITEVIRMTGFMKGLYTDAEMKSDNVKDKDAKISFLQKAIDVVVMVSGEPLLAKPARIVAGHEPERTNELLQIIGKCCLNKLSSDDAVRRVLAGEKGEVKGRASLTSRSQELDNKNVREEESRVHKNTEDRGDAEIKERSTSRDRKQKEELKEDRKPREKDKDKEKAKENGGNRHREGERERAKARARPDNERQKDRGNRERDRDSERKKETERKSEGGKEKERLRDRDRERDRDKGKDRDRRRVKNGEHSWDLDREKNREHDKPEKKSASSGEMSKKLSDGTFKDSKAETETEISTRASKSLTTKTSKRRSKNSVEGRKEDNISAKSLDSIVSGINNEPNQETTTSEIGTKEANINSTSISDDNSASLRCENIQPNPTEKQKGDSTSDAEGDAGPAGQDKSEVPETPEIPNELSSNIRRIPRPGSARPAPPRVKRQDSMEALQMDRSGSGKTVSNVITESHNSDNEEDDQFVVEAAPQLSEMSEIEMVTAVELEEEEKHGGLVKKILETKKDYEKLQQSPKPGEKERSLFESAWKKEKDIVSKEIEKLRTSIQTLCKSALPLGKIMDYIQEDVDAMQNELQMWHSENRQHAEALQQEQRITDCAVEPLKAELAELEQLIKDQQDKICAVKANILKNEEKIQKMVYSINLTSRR
# UniProt Q8WWW0: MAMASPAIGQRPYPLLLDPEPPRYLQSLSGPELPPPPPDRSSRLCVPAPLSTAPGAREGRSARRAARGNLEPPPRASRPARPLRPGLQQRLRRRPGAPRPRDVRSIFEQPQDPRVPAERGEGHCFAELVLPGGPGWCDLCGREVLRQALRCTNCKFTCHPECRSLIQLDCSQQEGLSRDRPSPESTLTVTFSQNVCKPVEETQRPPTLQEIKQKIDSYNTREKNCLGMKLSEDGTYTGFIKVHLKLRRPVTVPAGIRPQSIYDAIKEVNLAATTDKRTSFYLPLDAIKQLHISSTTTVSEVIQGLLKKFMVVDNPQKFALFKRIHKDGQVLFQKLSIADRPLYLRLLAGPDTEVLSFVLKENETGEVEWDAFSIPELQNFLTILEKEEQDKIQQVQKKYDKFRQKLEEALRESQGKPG
# UniProt Q8WXA3: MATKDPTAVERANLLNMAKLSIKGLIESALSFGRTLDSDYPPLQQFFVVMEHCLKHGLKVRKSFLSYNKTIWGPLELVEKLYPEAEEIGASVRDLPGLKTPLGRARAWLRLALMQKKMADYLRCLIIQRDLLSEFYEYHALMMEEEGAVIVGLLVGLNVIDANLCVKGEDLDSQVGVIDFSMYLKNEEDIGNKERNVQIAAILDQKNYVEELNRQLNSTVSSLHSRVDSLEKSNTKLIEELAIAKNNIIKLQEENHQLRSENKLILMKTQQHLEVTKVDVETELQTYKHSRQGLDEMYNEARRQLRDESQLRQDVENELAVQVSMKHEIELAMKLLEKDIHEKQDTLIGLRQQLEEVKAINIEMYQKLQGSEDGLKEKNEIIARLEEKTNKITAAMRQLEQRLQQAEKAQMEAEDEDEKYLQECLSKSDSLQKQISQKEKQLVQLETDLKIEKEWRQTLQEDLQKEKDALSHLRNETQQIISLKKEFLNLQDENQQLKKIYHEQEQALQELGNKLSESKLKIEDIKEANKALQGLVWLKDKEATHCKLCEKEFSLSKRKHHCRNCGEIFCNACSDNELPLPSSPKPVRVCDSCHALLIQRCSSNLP
# UniProt Q8WUM4: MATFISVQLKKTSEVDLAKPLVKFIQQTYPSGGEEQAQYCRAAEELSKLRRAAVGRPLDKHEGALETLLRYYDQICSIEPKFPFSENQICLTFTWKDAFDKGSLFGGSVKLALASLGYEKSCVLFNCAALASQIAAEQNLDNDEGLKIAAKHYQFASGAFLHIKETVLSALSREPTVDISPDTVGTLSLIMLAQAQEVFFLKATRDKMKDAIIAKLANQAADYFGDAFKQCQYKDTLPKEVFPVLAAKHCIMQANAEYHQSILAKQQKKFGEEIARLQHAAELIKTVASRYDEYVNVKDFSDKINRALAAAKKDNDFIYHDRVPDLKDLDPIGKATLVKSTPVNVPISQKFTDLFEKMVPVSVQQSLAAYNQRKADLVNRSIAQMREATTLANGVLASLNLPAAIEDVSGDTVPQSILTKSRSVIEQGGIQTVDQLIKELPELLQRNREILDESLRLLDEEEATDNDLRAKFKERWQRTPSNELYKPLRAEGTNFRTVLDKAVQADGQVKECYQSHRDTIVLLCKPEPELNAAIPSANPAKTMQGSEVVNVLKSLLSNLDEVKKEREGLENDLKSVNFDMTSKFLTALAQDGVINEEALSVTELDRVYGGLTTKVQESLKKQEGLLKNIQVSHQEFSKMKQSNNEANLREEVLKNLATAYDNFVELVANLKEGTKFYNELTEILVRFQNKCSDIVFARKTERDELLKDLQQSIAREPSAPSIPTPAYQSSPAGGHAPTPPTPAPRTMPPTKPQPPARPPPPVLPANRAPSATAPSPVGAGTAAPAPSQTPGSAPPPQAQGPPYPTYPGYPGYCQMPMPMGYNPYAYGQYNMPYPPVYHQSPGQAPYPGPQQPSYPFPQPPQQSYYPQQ
# UniProt Q8WU58: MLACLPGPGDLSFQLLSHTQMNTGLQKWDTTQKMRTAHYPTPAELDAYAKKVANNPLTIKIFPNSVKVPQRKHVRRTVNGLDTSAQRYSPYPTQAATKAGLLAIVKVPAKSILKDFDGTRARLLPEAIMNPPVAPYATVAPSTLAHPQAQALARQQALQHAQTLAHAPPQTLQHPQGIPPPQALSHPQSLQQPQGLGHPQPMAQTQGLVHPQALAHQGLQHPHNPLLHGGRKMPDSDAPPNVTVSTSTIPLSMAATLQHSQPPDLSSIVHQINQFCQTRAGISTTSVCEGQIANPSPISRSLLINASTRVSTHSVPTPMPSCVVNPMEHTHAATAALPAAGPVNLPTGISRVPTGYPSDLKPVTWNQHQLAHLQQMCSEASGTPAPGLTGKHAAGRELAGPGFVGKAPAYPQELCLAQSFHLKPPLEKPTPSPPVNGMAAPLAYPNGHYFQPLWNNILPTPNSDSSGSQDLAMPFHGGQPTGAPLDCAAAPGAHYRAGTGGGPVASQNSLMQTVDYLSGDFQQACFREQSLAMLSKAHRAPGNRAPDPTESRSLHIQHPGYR
# UniProt Q8WTS1: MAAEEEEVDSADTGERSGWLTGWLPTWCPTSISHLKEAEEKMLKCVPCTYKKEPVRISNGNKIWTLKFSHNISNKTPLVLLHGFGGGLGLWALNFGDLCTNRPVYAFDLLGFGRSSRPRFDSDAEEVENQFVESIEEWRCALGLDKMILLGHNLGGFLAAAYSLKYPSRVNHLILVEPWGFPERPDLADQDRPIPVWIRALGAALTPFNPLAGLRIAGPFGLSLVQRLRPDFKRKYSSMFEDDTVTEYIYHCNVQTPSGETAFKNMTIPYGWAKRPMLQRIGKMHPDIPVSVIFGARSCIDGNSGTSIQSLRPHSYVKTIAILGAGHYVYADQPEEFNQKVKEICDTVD
# UniProt Q8WWK9: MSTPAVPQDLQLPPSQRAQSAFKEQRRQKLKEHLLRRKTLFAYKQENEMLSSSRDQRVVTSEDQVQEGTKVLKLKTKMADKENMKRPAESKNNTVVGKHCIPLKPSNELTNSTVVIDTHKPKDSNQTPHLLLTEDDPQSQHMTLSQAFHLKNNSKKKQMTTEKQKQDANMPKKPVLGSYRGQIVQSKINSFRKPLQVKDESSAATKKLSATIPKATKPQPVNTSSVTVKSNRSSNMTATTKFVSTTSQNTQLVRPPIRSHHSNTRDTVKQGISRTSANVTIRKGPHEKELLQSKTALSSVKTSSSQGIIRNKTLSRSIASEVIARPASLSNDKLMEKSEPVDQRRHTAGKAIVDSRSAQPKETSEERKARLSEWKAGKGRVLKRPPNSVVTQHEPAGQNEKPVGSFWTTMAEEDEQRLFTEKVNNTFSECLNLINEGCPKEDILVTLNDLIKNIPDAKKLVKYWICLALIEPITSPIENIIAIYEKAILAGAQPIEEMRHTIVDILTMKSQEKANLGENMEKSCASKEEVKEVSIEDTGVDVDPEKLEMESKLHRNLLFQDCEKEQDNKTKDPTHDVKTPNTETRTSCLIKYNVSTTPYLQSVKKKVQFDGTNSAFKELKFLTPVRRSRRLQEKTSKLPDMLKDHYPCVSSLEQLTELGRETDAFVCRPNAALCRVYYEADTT
# UniProt Q8NI77: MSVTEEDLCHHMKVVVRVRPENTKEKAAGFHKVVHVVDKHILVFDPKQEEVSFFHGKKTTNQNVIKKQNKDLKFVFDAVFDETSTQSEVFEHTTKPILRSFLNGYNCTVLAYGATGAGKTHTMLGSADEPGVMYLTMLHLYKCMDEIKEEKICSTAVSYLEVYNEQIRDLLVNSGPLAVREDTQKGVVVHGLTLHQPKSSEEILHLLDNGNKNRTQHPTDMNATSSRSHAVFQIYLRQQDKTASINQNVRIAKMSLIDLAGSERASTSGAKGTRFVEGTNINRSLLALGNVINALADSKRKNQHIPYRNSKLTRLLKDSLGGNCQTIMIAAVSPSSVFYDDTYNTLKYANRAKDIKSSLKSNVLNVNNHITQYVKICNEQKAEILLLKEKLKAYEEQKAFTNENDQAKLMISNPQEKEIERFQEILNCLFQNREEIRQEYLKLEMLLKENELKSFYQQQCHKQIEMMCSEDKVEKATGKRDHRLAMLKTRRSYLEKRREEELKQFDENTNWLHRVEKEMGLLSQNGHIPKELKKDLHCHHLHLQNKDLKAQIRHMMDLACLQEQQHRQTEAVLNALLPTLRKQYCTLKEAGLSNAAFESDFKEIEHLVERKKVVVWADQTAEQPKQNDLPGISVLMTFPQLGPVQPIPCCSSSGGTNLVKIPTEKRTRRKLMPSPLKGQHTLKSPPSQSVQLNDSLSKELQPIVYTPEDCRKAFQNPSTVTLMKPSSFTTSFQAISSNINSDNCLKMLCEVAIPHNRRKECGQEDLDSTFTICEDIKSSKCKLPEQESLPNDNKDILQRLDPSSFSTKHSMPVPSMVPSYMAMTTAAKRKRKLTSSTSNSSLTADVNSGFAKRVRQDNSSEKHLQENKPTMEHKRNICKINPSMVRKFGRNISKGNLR
# UniProt Q8WUQ7: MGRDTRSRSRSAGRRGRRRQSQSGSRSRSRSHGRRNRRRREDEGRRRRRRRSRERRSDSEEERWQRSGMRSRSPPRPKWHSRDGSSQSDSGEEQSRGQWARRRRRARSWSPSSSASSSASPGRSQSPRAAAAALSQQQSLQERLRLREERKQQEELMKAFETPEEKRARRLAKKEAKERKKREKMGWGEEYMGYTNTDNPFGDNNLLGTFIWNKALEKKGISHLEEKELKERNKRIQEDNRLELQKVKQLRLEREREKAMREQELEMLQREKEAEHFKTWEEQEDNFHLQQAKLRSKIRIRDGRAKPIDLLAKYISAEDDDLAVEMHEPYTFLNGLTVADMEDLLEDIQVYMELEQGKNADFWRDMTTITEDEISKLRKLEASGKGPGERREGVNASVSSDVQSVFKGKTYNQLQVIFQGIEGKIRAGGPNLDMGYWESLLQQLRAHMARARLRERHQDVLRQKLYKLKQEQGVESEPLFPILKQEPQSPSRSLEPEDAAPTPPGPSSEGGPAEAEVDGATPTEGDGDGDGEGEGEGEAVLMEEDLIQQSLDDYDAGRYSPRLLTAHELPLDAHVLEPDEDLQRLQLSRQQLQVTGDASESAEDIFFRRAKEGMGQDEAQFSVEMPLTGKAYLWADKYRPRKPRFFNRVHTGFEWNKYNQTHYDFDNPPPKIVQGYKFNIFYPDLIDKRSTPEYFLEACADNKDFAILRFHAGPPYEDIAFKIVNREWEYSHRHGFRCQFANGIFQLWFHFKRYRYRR
# UniProt Q8TBZ3: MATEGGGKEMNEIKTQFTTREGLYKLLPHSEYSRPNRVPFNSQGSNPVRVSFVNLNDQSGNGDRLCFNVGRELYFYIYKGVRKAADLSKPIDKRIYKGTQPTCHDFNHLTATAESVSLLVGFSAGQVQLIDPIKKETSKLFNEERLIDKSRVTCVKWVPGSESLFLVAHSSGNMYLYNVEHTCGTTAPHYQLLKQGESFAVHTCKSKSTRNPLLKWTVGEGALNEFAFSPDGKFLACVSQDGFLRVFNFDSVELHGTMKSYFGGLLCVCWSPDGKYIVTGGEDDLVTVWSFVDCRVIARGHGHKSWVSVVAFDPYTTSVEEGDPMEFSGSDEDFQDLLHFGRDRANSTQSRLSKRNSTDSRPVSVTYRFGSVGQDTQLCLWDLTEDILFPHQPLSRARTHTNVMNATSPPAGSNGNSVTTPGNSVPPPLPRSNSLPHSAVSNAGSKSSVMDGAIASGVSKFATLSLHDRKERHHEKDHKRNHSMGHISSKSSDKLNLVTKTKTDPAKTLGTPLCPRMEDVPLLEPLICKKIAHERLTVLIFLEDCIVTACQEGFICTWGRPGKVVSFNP
# Compound: Cc1nc(Nc2ncc(C(=O)Nc3c(C)cccc3Cl)s2)cc(N2CCN(CCO)CC2)n1 [dasatinib]
# Test: log2 fold change of tryptic peptide abundance, ligand vs vehicle (limited proteolysis) (log2 ratio); higher = more trypsin-susceptible (destabilized)
# Conditions: ligand concentration: 5 uM; sample: K562 cleared lysate
row,Target,log2 fold change
1,"TRAF3IP1 (peptide sequence: EHDKPEKK, peptide start residue: 298) (UniProt Q8TDR0)",0.75
2,"RASSF5 (peptide sequence: LSIADRPLYLR, peptide start residue: 335) (UniProt Q8WWW0)",-0.149
3,"RUFY2 (peptide sequence: QLNSTVSSLHSR, peptide start residue: 215) (UniProt Q8WXA3)",0.309
4,"PDCD6IP (peptide sequence: KTSEVDLAKPLVK, peptide start residue: 11) (UniProt Q8WUM4)",-0.14
5,"FAM222B (peptide sequence: ELAGPGFVGK, peptide start residue: 397) (UniProt Q8WU58)",0.153
6,"ABHD5 (peptide sequence: IAGPFGLSLVQR, peptide start residue: 216) (UniProt Q8WTS1)",-0.204
7,"UniProt Q8TF01 (peptide sequence: EQNSLSLLEAR, peptide start residue: 462)",-0.173
8,"CKAP2 (peptide sequence: PASLSNDKLMEK, peptide start residue: 326) (UniProt Q8WWK9)",0.431
9,"KIF18A (peptide sequence: ELQPIVYTPEDCRK, peptide start residue: 699) (UniProt Q8NI77)",0.407
10,"UniProt Q8WUQ7 (peptide sequence: ERHQDVLR, peptide start residue: 455)",0.372
11,"WDR20 (peptide sequence: SSVMDGAIASGVSK, peptide start residue: 447) (UniProt Q8TBZ3)",0.126

# Reference: the supplement of paper PMC12819154, “High-throughput peptide-centric local stability assay extends protein–ligand identification to membrane proteins, tissues and bacteria” (Nature Structural & Molecular Biology, 2025)
